Source: patent US6737240B1, “Methods of screening for a multi-drug resistance conferring peptide” (Rigel Pharmaceuticals, Inc., priority 1999, dated 2004)
No constants are given. Whether binding was seen depends on the method and setting. In cells and extracts the contact can be indirect. Some entries that bind do so weakly or less than the wild type.

By UniProt entry, the sequences of proteins in these tests, tags left out. Where a name states a change or a piece, a line headed by the entry shows the natural chain unless it says otherwise.
UniProt P28066: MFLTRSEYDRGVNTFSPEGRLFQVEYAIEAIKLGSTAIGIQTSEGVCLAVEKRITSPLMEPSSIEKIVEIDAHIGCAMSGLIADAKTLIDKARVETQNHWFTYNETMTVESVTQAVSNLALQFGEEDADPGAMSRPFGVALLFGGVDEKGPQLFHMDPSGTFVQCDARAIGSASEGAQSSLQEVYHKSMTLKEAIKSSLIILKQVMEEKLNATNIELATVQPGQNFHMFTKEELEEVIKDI
UniProt O14818: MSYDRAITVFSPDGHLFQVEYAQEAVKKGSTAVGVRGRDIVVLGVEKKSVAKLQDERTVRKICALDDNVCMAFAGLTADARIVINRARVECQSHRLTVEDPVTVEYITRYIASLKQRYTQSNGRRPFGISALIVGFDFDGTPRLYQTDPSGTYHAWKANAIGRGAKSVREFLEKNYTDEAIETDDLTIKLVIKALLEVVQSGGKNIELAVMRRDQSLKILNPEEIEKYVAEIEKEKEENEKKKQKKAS

How the values were obtained:
[1] = biological target: endogenous Zeta proteasome subunit of HeLa cell extract (human) (UniProt P28066); test: pull-down from HeLa cell extract with biotinylated peptide on streptavidin agarose beads, western blot with anti-Zeta (FIG. 4B legend)
[2] = biological target: endogenous XAPC7 proteasome subunit of HeLa cell extract (human) (UniProt O14818); test: pull-down from HeLa cell extract with biotinylated peptide on streptavidin agarose beads, western blot with anti-XAPC7 (FIG. 4B legend)
[3] = biological target: endogenous Zeta proteasome subunit of HeLa cell extract (human) (UniProt P28066); test: pull-down from HeLa cell extract with biotinylated peptide on streptavidin agarose beads, western blot with anti-Zeta
[4] = biological target: endogenous XAPC7 proteasome subunit of HeLa cell extract (human) (UniProt O14818); test: pull-down from HeLa cell extract with biotinylated peptide on streptavidin agarose beads, western blot with anti-XAPC7

Measured: binding

MGEFLIVKVWGRMVCWVLVVRRFVLVIVLENSLSSNQGPPZ (biotin at the N-terminus through an aminocaproic acid (Acap) spacer) [biotinylated RG8.5 peptide]
binds: all assays above
